Record: PubChem BioAssay AID1259308 (NCATS, 2017)

- Purpose: 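Genes whose loss raises luciferase production in HEK293 cells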 (primary screen)
- Cells: human HEK293 embryonic kidney cells stably expressing firefly luciferase (HEK-CMV-Luc2-Hygro)
- Reagent: single siRNA against human genes, 0.8 pmol siRNA per well
- Time to read-out: 72 h
- Measurement: 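Luciferase light (ONE-Glo) measured on one replicate plate set and viability (CellTiter-Glo) on the other, scaled to a negative control siRNA, with robust z-scores and luciferase per cell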
- Scale: total luciferase, z-score and total luciferase, % of control: higher = more reporter protein produced
- Call rule: 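Active when the median/MAD z-score for overall luciferase is greater than 3; a gene was taken forward for validation with new siRNAs if at least two of its three siRNAs passed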
- Meaning of the calls: active = raised luciferase; inactive = no rise
The whole screen tested about 59,000 reagents; shown is a part drawn at random. About 1,510 of all reagents (2.6%) were called active. 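Calls use total luciferase alone and ignore viability, so some active siRNAs may act by altering cell number.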 Entries without a mark were called inactive. Further read-outs or replicates are left out here.

Gene | PubChem SID | total luciferase, z-score | total luciferase, % of control
EMC9 (GeneID 51016) | SID160739859 | 1.17 | 105
EMC9 (GeneID 51016) | SID160739860 | -0.585 | 70.3
EMC9 (GeneID 51016) | SID160739861 | 0.609 | 94
WNT9A (GeneID 7483) | SID160718865 | 2.44 | 130
WNT9A (GeneID 7483) | SID160718867 | 0.175 | 85.4
WNT9A (GeneID 7483) | SID160734905 | -1.03 | 61.4
POC5 (GeneID 134359) | SID160757331 | 1.96 | 121
POC5 (GeneID 134359) | SID160757332 | -1.21 | 57.9
POC5 (GeneID 134359) | SID160757333 | 0.29 | 87.6
PPP1CC (GeneID 5501) | SID160775594 | -1.64 | 49.4
PPP1CC (GeneID 5501) | SID160775605 | -0.561 | 70.7
PPP1CC (GeneID 5501) | SID160775616 | -0.33 | 75.3
LAPTM4A (GeneID 9741) | SID160722958 | 0.0779 | 83.4
LAPTM4A (GeneID 9741) | SID160722959 | -0.0973 | 80
LAPTM4A (GeneID 9741) | SID160722960 | 0.102 | 83.9
GPR65 (GeneID 8477) | SID160720123 | 0.545 | 92.7
GPR65 (GeneID 8477) | SID160720126 | -1.13 | 59.4
GPR65 (GeneID 8477) | SID160720127 | -1.15 | 59
TMEM18 (GeneID 129787) | SID160732458 | 0.184 | 85.5
TMEM18 (GeneID 129787) | SID160732459 | -0.833 | 65.3
TMEM18 (GeneID 129787) | SID160756893 | 0.0764 | 83.4
OVOS2P (GeneID 144203) | SID160758117 | 1.41 | 110
OVOS2P (GeneID 144203) | SID160758118 | 0.433 | 90.5
OVOS2P (GeneID 144203) | SID160758119 | -0.00117 | 81.9
GUSB (GeneID 2990) | SID160776129 | -0.513 | 71.7
GUSB (GeneID 2990) | SID160776140 | 2.54 | 132
GUSB (GeneID 2990) | SID160776151 | -0.367 | 74.6
CLIC2 (GeneID 1193) | SID160744445 | -0.331 | 75.3
CLIC2 (GeneID 1193) | SID160744457 | -0.421 | 73.5
CLIC2 (GeneID 1193) | SID160744468 | -1.34 | 55.3
TNFRSF25 (GeneID 8718) | SID160724187 | -0.187 | 78.2
TNFRSF25 (GeneID 8718) | SID160727863 | 0.907 | 99.9
TNFRSF25 (GeneID 8718) | SID160727864 | -0.0744 | 80.4
OR6S1 (GeneID 341799) | SID160733103 | -1.15 | 58.9
OR6S1 (GeneID 341799) | SID160764573 | -1.23 | 57.5
OR6S1 (GeneID 341799) | SID160764574 | -1.29 | 56.3
TMEM63C (GeneID 57156) | SID160745724 | 0.215 | 86.2
TMEM63C (GeneID 57156) | SID160745727 | -0.283 | 76.3
TMEM63C (GeneID 57156) | SID160745728 | 0.921 | 100

Targets listed so far whose target name begins with L or l (3):
Gene | PubChem SID | total luciferase, z-score | total luciferase, % of control
LAPTM4A (GeneID 9741) | SID160722958 | 0.0779 | 83.4
LAPTM4A (GeneID 9741) | SID160722959 | -0.0973 | 80
LAPTM4A (GeneID 9741) | SID160722960 | 0.102 | 83.9
